No constants are given. Whether binding was seen depends on the method and setting. In cells and extracts the contact can be indirect. Some binding calls cover weakened binding; strength is not graded here.
Columns and labels:
PTHR^CFP [1] = target: PTHR^CFP (UniProt Q03431); experiment: condition: only cells treated with 10 nM PTHrP_(1-141) for 30 s in place of PTH_(1-34); FRET or BRET; FRET time course in single HEK293 cells transiently expressing PTHR^CFP and βarr-2^YFP, treated with 10 nM PTHrP(1-141) for 30 s, then washout
PTHR^CFP [2] = target: PTHR^CFP (UniProt Q03431); experiment: FRET or BRET; FRET time course in single HEK293 cells transiently expressing PTHR^CFP and βarr-2^YFP, treated with 10 nM PTH(1-34) for 30 s, then washout

Protein sequences, listed by entry. Tags and fused reporters are not part of them. Residues count along the entry.
UniProt Q03431, residues 27-593: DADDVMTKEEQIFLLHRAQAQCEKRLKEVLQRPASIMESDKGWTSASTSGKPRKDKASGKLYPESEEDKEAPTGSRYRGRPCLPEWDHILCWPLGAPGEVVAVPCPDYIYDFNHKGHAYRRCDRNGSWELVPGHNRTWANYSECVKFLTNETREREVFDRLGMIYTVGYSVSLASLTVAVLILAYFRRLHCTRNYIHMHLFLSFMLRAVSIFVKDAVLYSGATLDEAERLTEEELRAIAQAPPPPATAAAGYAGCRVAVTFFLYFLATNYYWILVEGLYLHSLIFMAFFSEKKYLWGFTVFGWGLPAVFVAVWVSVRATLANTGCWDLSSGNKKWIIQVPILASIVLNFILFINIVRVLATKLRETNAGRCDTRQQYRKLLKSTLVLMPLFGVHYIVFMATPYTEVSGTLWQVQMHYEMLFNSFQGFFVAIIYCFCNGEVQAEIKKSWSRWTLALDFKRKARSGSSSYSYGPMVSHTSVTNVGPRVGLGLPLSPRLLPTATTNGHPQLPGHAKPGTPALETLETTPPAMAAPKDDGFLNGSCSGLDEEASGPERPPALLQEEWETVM
UniProt P32121: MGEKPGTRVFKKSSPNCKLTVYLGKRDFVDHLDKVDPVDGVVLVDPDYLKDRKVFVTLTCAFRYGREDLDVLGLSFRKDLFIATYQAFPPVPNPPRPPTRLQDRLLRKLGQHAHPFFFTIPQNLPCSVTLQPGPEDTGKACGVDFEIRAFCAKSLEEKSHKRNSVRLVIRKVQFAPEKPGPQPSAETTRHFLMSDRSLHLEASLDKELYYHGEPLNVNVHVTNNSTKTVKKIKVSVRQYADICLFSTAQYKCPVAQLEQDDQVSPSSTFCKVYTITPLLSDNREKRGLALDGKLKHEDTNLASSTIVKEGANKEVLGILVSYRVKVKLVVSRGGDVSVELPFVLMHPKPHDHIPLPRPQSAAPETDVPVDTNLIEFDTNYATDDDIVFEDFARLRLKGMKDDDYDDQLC

binding (PTHR^CFP [1]): no binding
binding (PTHR^CFP [2]): binds
Substance: βarr-2^YFP (β-arrestin 2 tagged with YFP) (from UniProt P32121 1-409)

Reference: PMC9437850
